Measurements reported in publication PMC4772106.
Results are given in words; binding and its absence hold for the method and conditions named. In cells and extracts the contact can be indirect. Some results given as binding are weak or reduced against the parent protein; the word gives no strength. Tags and fused reporters may be left off the sequences shown. Blank lines part the entries; values can stand above or below the molecule they belong to.

By UniProt entry, the sequences of proteins in these tests, tags left out.
UniProt P14618: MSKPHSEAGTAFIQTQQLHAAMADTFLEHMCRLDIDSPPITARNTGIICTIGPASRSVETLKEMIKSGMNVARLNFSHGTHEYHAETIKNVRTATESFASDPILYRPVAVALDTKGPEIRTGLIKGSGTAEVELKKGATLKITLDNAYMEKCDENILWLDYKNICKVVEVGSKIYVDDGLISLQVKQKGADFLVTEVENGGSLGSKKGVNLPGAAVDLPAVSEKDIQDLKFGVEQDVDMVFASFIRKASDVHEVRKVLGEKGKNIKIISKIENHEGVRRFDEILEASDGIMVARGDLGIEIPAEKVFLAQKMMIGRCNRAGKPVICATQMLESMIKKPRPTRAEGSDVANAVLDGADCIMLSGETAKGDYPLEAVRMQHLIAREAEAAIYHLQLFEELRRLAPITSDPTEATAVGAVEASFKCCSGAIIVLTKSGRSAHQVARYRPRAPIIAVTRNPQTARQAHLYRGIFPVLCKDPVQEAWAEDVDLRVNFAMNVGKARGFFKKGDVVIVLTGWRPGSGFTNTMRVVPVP

Biological target: Flag-tagged PKM2 (human) (UniProt P14618)
Test: co-IP; Flag-PKM2 co-expressed in HEK293T (legend: HEK293) cells with GFP-tagged TTP fragments; immunoprecipitation followed by immunoblotting

binding: binds
Molecule: GFP-F3 (TTP 104-173 aa) (from UniProt P26651 104-173) (domain or fragment)

binding: binds weakly
Molecule: GFP-tagged TTP C-terminal truncation ZnC (103-326 aa) (from UniProt P26651 103-326) (domain or fragment)

binding: binds
Molecule: GFP-tagged TTP N-terminal truncation ZnN (1-173 aa) (from UniProt P26651 1-173) (domain or fragment)

binding: binds
B1: GFP-F2 (TTP 51-103 aa) (domain or fragment, UniProt P26651 51-103)
chain: TSRLPGRSTSLVEGRSCGWVPPPPGFAPLAPRLGPELSPSPTSPTATSTTPSR
